PubChem BioAssay AID1159578 | Peter MacCallum Cancer Centre – 2015
The deposit covers about 18,000 reagents; shown is a random part of them. Over the whole deposit, about 1,030 (5.7%) got an active call. 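Inactive calls also include pools with fewer than 3300 nuclei, whose migration was not assessed.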 The raw values are shown without normalisation.

- Assay: 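siRNA pools altering how lymphatic endothelial cells close a scratch wound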 (primary screen)
- System: human lymphatic endothelial cells
- Reagents: siRNA pool against human genes, 40 nM
- Timing: 48 h after transfection
- Read-out: 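High-content imaging of dye-stained cells in a scratch assay measures filled wound area and nuclei per well; duplicate means given as ratio to mock and robust z-score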
- Direction: migration robust z-score: higher = faster migration into the scratch; migration relative to mock: higher = more scratch area covered than mock; nuclei per well: higher = more cells in the well
- Active means: 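Pools averaging fewer than 3300 nuclei are never called; remaining pools count as changed when migration robust z lies outside -2 to 2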
- Calls: active = migration changed; inactive = no migration change, or too few cells

gene | migration robust z-score | migration class with cell-count check | migration relative to mock | nuclei per well, duplicate mean | Outcome
AIM2 (absent in melanoma 2) | -0.58 | migration z between -2 and 2; enough cells | 0.73 | 6010 | inactive
TMEM178A (transmembrane protein 178A) | -0.6 | migration z between -2 and 2; enough cells | 0.73 | 5652 | inactive
GLDC (glycine decarboxylase) | 0.36 | migration z between -2 and 2; enough cells | 0.88 | 6256 | inactive
ICOS (inducible T cell costimulator) | -1.63 | migration z between -2 and 2; enough cells | 0.47 | 5854 | inactive
RAB7A (RAB7A, member RAS oncogene family) | -0.62 | migration z between -2 and 2; enough cells | 0.68 | 6298 | inactive
UBXN4 (UBX domain protein 4) | -0.98 | migration z between -2 and 2; enough cells | 0.63 | 6057 | inactive
COL1A1 (collagen type I alpha 1 chain) | 0.2 | migration z between -2 and 2; enough cells | 0.94 | 6294 | inactive
C9orf163 (chromosome 9 putative open reading frame 163) | -0.39 | migration z between -2 and 2; enough cells | 0.78 | 5850 | inactive
RGS9BP (regulator of G protein signaling 9 binding protein) | 0 | migration z between -2 and 2; enough cells | 0.88 | 5634 | inactive
SIPA1L1 (signal induced proliferation associated 1 like 1) | -0.28 | migration z between -2 and 2; enough cells | 0.82 | 4912 | inactive
PHF3 (PHD finger protein 3) | 0.18 | migration z between -2 and 2; enough cells | 0.84 | 5348 | inactive
FOSB (FosB proto-oncogene, AP-1 transcription factor subunit) | -1.25 | migration z between -2 and 2; enough cells | 0.56 | 6034 | inactive
HLA-DMB (major histocompatibility complex, class II, DM beta) | 0.2 | migration z between -2 and 2; enough cells | 0.84 | 5058 | inactive
WDFY2 (WD repeat and FYVE domain containing 2) | 2.02 | migration z above 2; enough cells | 1.41 | 6521 | active
DAZ3 (deleted in azoospermia 3) | -0.24 | migration z between -2 and 2; enough cells | 0.82 | 5966 | inactive
ST6GALNAC5 (ST6 N-acetylgalactosaminide alpha-2,6-sialyltransferase 5) | -0.24 | migration z between -2 and 2; enough cells | 0.76 | 6562 | inactive
MAGEB6 (MAGE family member B6) | 1.15 | migration z between -2 and 2; enough cells | 1.18 | 5610 | inactive
HTR2A (5-hydroxytryptamine receptor 2A) | 0.83 | migration z between -2 and 2; enough cells | 0.96 | 4804 | inactive
OR6T1 (olfactory receptor family 6 subfamily T member 1) | 0.26 | migration z between -2 and 2; enough cells | 0.96 | 5390 | inactive
CCDC178 (coiled-coil domain containing 178) | -0.3 | migration z between -2 and 2; enough cells | 0.81 | 5634 | inactive
NRDC (nardilysin convertase) | 0.73 | migration z between -2 and 2; enough cells | 0.94 | 5256 | inactive
NADK (NAD kinase) | -1.4 | migration z between -2 and 2; enough cells | 0.53 | 3882 | inactive
CDC45 (cell division cycle 45) | -0.29 | migration z between -2 and 2; enough cells | 0.81 | 4296 | inactive
GDF7 (growth differentiation factor 7) | 0.05 | migration z between -2 and 2; enough cells | 0.9 | 5051 | inactive
CYP26C1 (cytochrome P450 family 26 subfamily C member 1) | -1.84 | migration z between -2 and 2; enough cells | 0.41 | 5094 | inactive
MAPRE2 (microtubule associated protein RP/EB family member 2) | -0.36 | migration z between -2 and 2; enough cells | 0.79 | 5372 | inactive
GPR171 (G protein-coupled receptor 171) | 0.34 | migration z between -2 and 2; enough cells | 0.87 | 6653 | inactive
TMEM183A (transmembrane protein 183A) | -1.32 | migration z between -2 and 2; enough cells | 0.54 | 5674 | inactive
CCDC138 (coiled-coil domain containing 138) | -0.45 | migration z between -2 and 2; enough cells | 0.77 | 6266 | inactive
METAP1 (methionyl aminopeptidase 1) | 1.01 | migration z between -2 and 2; enough cells | 1 | 5456 | inactive
VCPKMT (valosin containing protein lysine methyltransferase) | -1.05 | migration z between -2 and 2; enough cells | 0.61 | 5640 | inactive
PPOX (protoporphyrinogen oxidase) | -1.77 | migration z between -2 and 2; enough cells | 0.46 | 4751 | inactive
DLK1 (delta like non-canonical Notch ligand 1) | -1.74 | migration z between -2 and 2; enough cells | 0.43 | 6148 | inactive
RIN1 (Ras and Rab interactor 1) | 1.08 | migration z between -2 and 2; enough cells | 1.17 | 5331 | inactive
OR1D4 (olfactory receptor family 1 subfamily D member 4) | 3.18 | migration z above 2; enough cells | 1.71 | 5748 | active
WBP11 (WW domain binding protein 11) | -0.26 | migration z between -2 and 2; enough cells | 0.76 | 5383 | inactive
TRIM6-TRIM34 (TRIM6-TRIM34 readthrough) | -0.02 | migration z between -2 and 2; enough cells | 0.8 | 6230 | inactive
ACY3 (aminoacylase 3) | -1.1 | migration z between -2 and 2; enough cells | 0.6 | 7026 | inactive
SCGB2A2 (secretoglobin family 2A member 2) | 2.26 | migration z above 2; enough cells | 1.47 | 5806 | active

Called active, among the entries above:
gene | migration robust z-score | migration class with cell-count check | migration relative to mock | nuclei per well, duplicate mean | Outcome
WDFY2 (WD repeat and FYVE domain containing 2) | 2.02 | migration z above 2; enough cells | 1.41 | 6521 | active
OR1D4 (olfactory receptor family 1 subfamily D member 4) | 3.18 | migration z above 2; enough cells | 1.71 | 5748 | active
SCGB2A2 (secretoglobin family 2A member 2) | 2.26 | migration z above 2; enough cells | 1.47 | 5806 | active
